# Library compounds against nucleic acid targets

Targets (5′ to 3′):
TPP: TPP riboswitch RNA three-way junction, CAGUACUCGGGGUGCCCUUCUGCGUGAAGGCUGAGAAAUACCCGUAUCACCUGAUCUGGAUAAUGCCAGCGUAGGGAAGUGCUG. About 24,000 compounds screened, about 160 hits.
PreQ1: PreQ1 riboswitch RNA pseudoknot, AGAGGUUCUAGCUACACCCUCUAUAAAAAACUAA. From B. subtilis. About 24,000 compounds screened, about 170 hits.

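The test is a small-molecule microarray: each compound is printed twice on a reactive slide, and binding shows as fluorescence of the labelled oligonucleotide after washing. For the PreQ1, TPP and SAM-II riboswitches the laboratory earlier reported (doi:10.1038/s41467-019-09493-3) 1 µM RNA, 2 h, and a rule that included a mean Z-score above 3 (spot signal-to-noise against the whole library), a score well above that on a control array, and duplicate spots agreeing (coefficient of variation under 100). The data file gives only the calls; its cut-offs may differ, and compounds hitting several targets are kept. A missing hit is not proof of no binding, and a hit is not a measured affinity.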 “hit” means called a hit, “no hit” means screened and not called a hit. This is an unselected part of the compounds tested.

- CCCCS(=O)(=O)N1C[C@H](C2CC2)[C@@H](N)C1 : TPP: no hit; PreQ1: no hit
- Cc1cccc(Cl)c1OCCNC(=O)c1cn(CCN)nn1 : TPP: hit; PreQ1: hit
- Cc1cc(C(=O)O)sc1CNC1CCCCCCC1 : TPP: no hit; PreQ1: no hit
- CCOC(=O)c1nc(Nc2ccc(Br)cc2)c2ccccc2n1 : TPP: no hit; PreQ1: no hit
- CCCCn1c(N)c(C(=O)OCC)c2nc3ccccc3nc21 : TPP: no hit; PreQ1: no hit
- CCN1C(=O)c2ccc(CN)c3cccc1c23 : TPP: no hit; PreQ1: no hit
- Cc1ccc(Nc2nc(C)cc(N3CCN(S(=O)(=O)c4cc(F)ccc4F)CC3)n2)cc1 : TPP: no hit; PreQ1: no hit
- O=C(c1cnco1)N1CCN(Cc2cnn3cccnc23)CC(O)C1 (stereo not shown) : TPP: no hit; PreQ1: no hit
- CCC(O)c1nc2ccccc2n1CCOc1ccccc1Cl (stereo not shown) : TPP: no hit; PreQ1: no hit
- CN(C)c1nsc(N2CC[C@](C)(O)[C@@H](O)C2)n1 : TPP: no hit; PreQ1: no hit
- C[C@H](N)CNC(=O)c1ccccc1-c1nc[nH]n1 : TPP: no hit; PreQ1: no hit
- C=CCNC1CC(=O)N(c2ccc(Oc3ccccc3)cc2)C1=O (stereo not shown) : TPP: no hit; PreQ1: no hit
- Cc1ccc(C)c(Cn2c(CCNC(=O)CCCO)nc3ccccc32)c1 : TPP: no hit; PreQ1: no hit
- Cc1cccc(-c2nc(N)nc3c2CN(C(=O)c2cc(C)n[nH]2)C3C)c1 (stereo not shown) : TPP: no hit; PreQ1: no hit
- CCOc1cc(C2C(C#N)=C(N)Oc3cc(C)oc(=O)c32)ccc1O (stereo not shown) : TPP: no hit; PreQ1: no hit
- Cc1ccc(Nc2nc(NCCCO)nc3c2cnn3C)cc1 : TPP: no hit; PreQ1: no hit
- O=C(O)c1cnn2c(=S)nc[nH]c12 : TPP: no hit; PreQ1: no hit
- NC1CCCN(C(=O)c2cc3ccccc3s2)CC1 (stereo not shown) : TPP: no hit; PreQ1: no hit
- CCCCOCC1CC2(CC(C)(c3csc(N)n3)OC2=O)C(=O)O1 (stereo not shown) : TPP: no hit; PreQ1: no hit
- CCCCCOC(=O)c1ccc(N2CC(=O)C(c3nc4ccccc4[nH]3)=C2N)cc1 : TPP: no hit; PreQ1: no hit
- Cc1ccc([C@H]2CN(C(=O)CCc3c(C)nc4ncnn4c3C)C[C@@H]2N)o1 : TPP: no hit; PreQ1: no hit
- N#CC1=C(N)OC2=C(C(=O)CCC2)C1c1ccccc1F (stereo not shown) : TPP: no hit; PreQ1: no hit
- O=C(Nc1ccc(F)c(C(F)(F)F)c1)Nc1nnc(-c2ccncc2)s1 : TPP: no hit; PreQ1: no hit
- Cn1c(=O)n(C)c2cc(C(O)COc3ccc(CNC(C)(C)C)cc3)ccc21 (stereo not shown) : TPP: no hit; PreQ1: no hit
- CCc1cccc(CC)c1NS(=O)(=O)c1cc(Br)cnc1N : TPP: no hit; PreQ1: no hit
- O=c1[nH]c2cc3c(cc2cc1CN1C[C@H](O)[C@@H](N2CCCC2)C1)CCC3 : TPP: no hit; PreQ1: no hit
- O=C(NCc1nnnn1-c1ccccc1)c1cn2c(n1)CNCC2 : TPP: no hit; PreQ1: no hit

Repeated from the top, 3 entries:

structure,TPP,PreQ1
CCCCS(=O)(=O)N1C[C@H](C2CC2)[C@@H](N)C1,no hit,no hit
Cc1cccc(Cl)c1OCCNC(=O)c1cn(CCN)nn1,hit,hit
Cc1cc(C(=O)O)sc1CNC1CCCCCCC1,no hit,no hit

Data from the ROBIN nucleic acid binder screens, doi:10.1002/anie.202211358.